Experimental data as given in patent US20150197729A1.
Results are given in words; binding and its absence hold for the method and conditions named. For some assays here: Binding seen in cells or lysates may run through a third protein. Some results given as binding are weak or reduced against the parent protein; the word gives no strength.

Protein sequences, listed by entry. Tags and fused reporters are not part of them. Residues count along the entry.
UniProt O14727: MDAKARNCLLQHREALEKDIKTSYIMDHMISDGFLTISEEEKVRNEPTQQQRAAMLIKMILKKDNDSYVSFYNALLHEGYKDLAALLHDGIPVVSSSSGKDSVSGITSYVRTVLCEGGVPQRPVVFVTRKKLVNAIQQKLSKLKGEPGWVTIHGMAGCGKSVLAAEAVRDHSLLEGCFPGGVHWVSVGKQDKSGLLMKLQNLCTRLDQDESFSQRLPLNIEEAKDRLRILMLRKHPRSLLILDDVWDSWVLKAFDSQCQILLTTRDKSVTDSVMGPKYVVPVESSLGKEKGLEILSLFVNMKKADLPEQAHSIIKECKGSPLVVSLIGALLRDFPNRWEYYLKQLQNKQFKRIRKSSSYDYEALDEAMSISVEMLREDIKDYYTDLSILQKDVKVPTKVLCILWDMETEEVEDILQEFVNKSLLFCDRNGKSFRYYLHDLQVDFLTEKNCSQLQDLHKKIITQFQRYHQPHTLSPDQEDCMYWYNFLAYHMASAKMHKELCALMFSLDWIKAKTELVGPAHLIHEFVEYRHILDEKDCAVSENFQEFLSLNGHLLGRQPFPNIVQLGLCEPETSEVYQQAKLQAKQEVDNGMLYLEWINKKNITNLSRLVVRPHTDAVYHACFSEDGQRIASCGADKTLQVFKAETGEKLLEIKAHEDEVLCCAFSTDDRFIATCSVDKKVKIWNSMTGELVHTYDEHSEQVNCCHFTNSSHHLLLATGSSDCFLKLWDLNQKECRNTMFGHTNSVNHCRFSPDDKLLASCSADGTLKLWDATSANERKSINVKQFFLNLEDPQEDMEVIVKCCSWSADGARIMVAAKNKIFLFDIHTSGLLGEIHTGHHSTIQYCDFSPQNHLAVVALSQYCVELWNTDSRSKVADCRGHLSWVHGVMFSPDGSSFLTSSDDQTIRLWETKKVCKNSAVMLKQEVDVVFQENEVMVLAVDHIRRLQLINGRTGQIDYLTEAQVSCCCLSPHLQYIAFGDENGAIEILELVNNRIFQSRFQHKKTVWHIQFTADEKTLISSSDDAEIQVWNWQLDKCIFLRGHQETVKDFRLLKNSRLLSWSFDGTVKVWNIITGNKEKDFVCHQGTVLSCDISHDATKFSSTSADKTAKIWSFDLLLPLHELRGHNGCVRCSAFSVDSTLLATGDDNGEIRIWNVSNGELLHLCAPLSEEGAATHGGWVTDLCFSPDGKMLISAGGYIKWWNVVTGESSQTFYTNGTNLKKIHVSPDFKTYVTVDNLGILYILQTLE
UniProt P62894, residues 2-105: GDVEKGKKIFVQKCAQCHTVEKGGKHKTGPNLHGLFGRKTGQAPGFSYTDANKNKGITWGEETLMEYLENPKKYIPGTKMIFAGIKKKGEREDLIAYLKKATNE

Experiments:
[1] = target: Recombinant full-length Apaf-1 (amino acids 1-1248) (UniProt O14727); experiment: Pull-down with His-tagged Apaf-1 on Ni-NTA beads, Western blot with anti-cytochrome c and anti-Apaf-1; total cellular RNA at 0.1, 0.2 and 0.4 ug/ul in lanes 3-5
[2] = target: Bovine cytochrome c (bovine) (UniProt P62894); experiment: pull-down: His-tagged Apaf-1 on Ni-NTA beads, 4 C, 1 h, Western blot

| binding [1] | binding [2] | Substance |
| --- | --- | --- |
| binds | – | Bovine cytochrome c (from UniProt P62894 2-105) |
| – | binds | Recombinant full-length Apaf-1 (amino acids 1-1248) (from UniProt O14727 1-1248) |
